In PMC6686729 (Chemical Science, 2019):
Strings that start with PEPTIDE1 are HELM notation: dots part the residues, brackets hold end groups and non-standard residues.

Test: general procedure: Fmoc solid-phase peptide synthesis; PyBOP/NMM (manual Fmoc-Cys(Trt) coupling)
Settings: conjugation step

Substance	conjugation yield (HCl salt) [%]	conjugation yield (HCl salt (2)) [%]
PEPTIDE1{R.G.D.[dF].K}|PEPTIDE2{[AZA-NO2-OCH2CO].[PEG].[PEG]}$PEPTIDE1,PEPTIDE1,1:R1-5:R2|PEPTIDE1,PEPTIDE2,5:R3-3:R2$$$V2.0	85	–
PEPTIDE1{[ac].C.R.G.D.K.G.P.D.C.[am]}|PEPTIDE2{[ac].C}|CHEM1{[Suc-AZA-NO2]}$PEPTIDE1,PEPTIDE1,2:R3-10:R3|PEPTIDE1,PEPTIDE2,6:R3-2:R2|PEPTIDE2,CHEM1,2:R3-1:R1$$$V2.0	–	71
